Measurements reported in US20220025037A1 (DRAGONFLY THERAPEUTICS, published 2022).
Results are given in words; binding and its absence hold for the method and conditions named. Some entries that bind do so weakly or less than the wild type.

The chains behind the UniProt entries cited, without tags or fusion partners. Where a name states a change or a piece, a line headed by the entry shows the natural chain unless it says otherwise. A line that says so, or that is headed by a name, gives the form on record, which may keep a tag or linker. Residues count along the entry.
UniProt Q9NYJ7: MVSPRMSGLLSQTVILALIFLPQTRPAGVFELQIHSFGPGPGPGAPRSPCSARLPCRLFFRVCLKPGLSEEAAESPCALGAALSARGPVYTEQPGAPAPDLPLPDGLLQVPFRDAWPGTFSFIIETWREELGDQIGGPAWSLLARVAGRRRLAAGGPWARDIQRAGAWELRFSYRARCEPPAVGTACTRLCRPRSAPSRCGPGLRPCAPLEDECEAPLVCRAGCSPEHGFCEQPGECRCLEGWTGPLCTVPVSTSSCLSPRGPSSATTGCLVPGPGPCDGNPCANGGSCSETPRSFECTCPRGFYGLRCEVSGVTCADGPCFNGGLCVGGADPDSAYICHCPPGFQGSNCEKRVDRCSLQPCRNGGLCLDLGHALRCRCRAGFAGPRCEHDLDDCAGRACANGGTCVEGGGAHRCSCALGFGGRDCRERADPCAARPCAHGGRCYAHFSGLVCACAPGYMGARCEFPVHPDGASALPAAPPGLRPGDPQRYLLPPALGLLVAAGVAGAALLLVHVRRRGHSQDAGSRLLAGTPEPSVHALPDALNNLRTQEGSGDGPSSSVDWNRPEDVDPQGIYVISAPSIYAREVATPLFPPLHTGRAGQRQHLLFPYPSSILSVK
DLL3 expressed on NCI-H82 cells: residues 27-618 of Q9NYJ7
recombinant human DLL3 (ELISA coat): residues 27-492 of Q9NYJ7
recombinant His-tagged EGF2-6 domains of human DLL3: residues 274-492 of Q9NYJ7
recombinant His-tagged EGF3-6 domains of human DLL3: residues 312-492 of Q9NYJ7
recombinant His-tagged EGF4-6 domains of human DLL3: residues 353-492 of Q9NYJ7

Legend:
[1] = molecular target: recombinant human DLL3 (ELISA coat) (human) (UniProt Q9NYJ7); test: ELISA on coated recombinant human DLL3
[2] = molecular target: ECD of human DLL3 (Adipogen AG-40B-0151, FLAG-tag) (human) (UniProt Q9NYJ7); test: SPR (Biacore 8K), 37 C, antibody captured on anti-mouse Fc, hDLL3 ECD injected at several concentrations
[3] = molecular target: DLL3 expressed on NCI-H82 cells (human) (UniProt Q9NYJ7); test: flow cytometry on NCI-H82 cells, antibody at 2 ug/mL, fluorophore-conjugated anti-mouse IgG secondary
[4] = molecular target: recombinant human DLL3 (ELISA coat) (human) (UniProt Q9NYJ7); test: ELISA, plate coated with recombinant human DLL3 at 0.5 ug/ml, anti-mouse IgG-HRP/TMB, signal as % of positive control max
[5] = molecular target: DLL3 expressed on NCI-H82 cells (human) (UniProt Q9NYJ7); test: flow cytometry on NCI-H82 cells, anti-mouse IgG secondary
[6] = molecular target: ECD of human DLL3 (Adipogen AG-40B-0151, FLAG-tag) (human) (UniProt Q9NYJ7); test: SPR binning (Biacore 8K), 25 C, 2F7 captured on anti-mouse Fc, then DLL3 ECD, then Stemcentrx antibody
[7] = molecular target: DLL3 expressed on NCI-H82 cells (human) (UniProt Q9NYJ7); test: flow cytometry on NCI-H82 cells, serial dilution from 2 ug/mL, fluorophore-conjugated anti-mouse IgG secondary, MFI
[8] = molecular target: ECD of human DLL3 (Adipogen AG-40B-0151, FLAG-tag) (human) (UniProt Q9NYJ7); test: SPR binning (Biacore 8K), 25 C, 9E6 captured on anti-mouse Fc, then DLL3 ECD, then Stemcentrx antibody
[9] = molecular target: recombinant His-tagged EGF2-6 domains of human DLL3 (human) (UniProt Q9NYJ7); test: SPR (Biacore 8K), 37 C, 5E7 captured on anti-mouse Fc, DLL3 construct injected
[10] = molecular target: recombinant His-tagged EGF4-6 domains of human DLL3 (human) (UniProt Q9NYJ7); test: as above
[11] = molecular target: recombinant His-tagged EGF3-6 domains of human DLL3 (human) (UniProt Q9NYJ7); test: as above
[12] = molecular target: recombinant His-tagged EGF2-6 domains of human DLL3 (human) (UniProt Q9NYJ7); test: SPR, 37 C, His-tagged DLL3 domains
[13] = molecular target: recombinant His-tagged EGF4-6 domains of human DLL3 (human) (UniProt Q9NYJ7); test: SPR, 37 C, His-tagged DLL3 domains
[14] = molecular target: recombinant His-tagged EGF3-6 domains of human DLL3 (human) (UniProt Q9NYJ7); test: SPR, 37 C, His-tagged DLL3 domains

Measured: binding

B1: murine anti-DLL3 antibody clone 2F7 (antibody, V domains shown)
VH: QVQLQQSGAELMKPGASVKLSCKATGYTFTGYWIDWIKQRPGHGLEWVGEILPGSDNINYNEKFRGKATFTADTSSNTAYIQLSSLTTEDSAIYFCARCGTGPWFTYWGQGTLVTVSA
VL: NIMMTQSPSSLAVSAGEKVTMSCKSSQSVLYSSNQKNYLAWYQQKPGQSPRLLIYWASTRASGVPDRFTGSGSGTDFTLTITNIQPEDLAVYYCHQFLSSTWTFGGGTKLEIK
binds: [1] | [2] | [3] | [4] | [5] | [6] | [7]

B2: murine anti-DLL3 antibody clone 9E6 (antibody, V domains shown)
VH: QLQLVQSGPELMRPGETVKISCKASGYTFTTYGMNWVKQAPGKGLKWVGWINTYSGVPTYADDFKGRFAFSLESSASTAFLQINNLKDEDTATYFCARFGNYGFDCWGQGTTLTVSS
VL: DIVMTQSPSSLSVSAGEKVTMSCKSSQSLLNSGNQKNYLAWYQQKPGQPPKLLIYGASTRESGVPDRFTGSGSGTDFTLTISSVQAEDLAVYYCQNDHIYPYTFGGGTKLEIK
binds: [1] | [2] | [8] | [3] | [4] | [5] | [7]

B3: murine anti-DLL3 antibody clone 10F5 (antibody, V domains shown)
VH: QLQLVQSGPELMRPGETVKISCKASGYTFTTYGMNWVKQAPGKGLKWVGWINTYSGVPTYADDFKGRFAFSLESSASTAFLQINNLKDEDTATYFCARFGNYGFDCWGQGTTLTVSS
VL: DIVMTQSPSSLSVSAGEKVTMSCKSSQSLLNSGNQKNYLAWYQQKPGQPPKLLIYGASTRESGVPDRFTGSGSGTDFTLTISSVQAEDLAVYYCQNDHIYPYTFGGGTKLEIK
binds: [1] | [3] | [4] | [5] | [7]

B4: murine anti-DLL3 antibody clone 5E7 (antibody, V domains shown)
VH: EVQLQQSGAELVRPGASVKLSCTASGFNIKDDYIHWVKQWPEQGLEWIGWIDSENGDTEYASKFQGKATMTADTSSNTAYLQLSGLTSEDTAVYYCTTSSYYSYDLFVYWGQGTLVTVSA
VL: DVLMTQTPLTLSVPIGQPASISCKSSQSLLHSNGKTYLNWLLQRPGQSPKLLIYLVSKLESGVPDRFSGSGSGTDFTLKISRVEAEDLGVYYCLQTTHLYTFGGGTKLEIK
notes: Mouse hybridoma antibody, captured by anti-mouse Fc; also called m5E7; murine 5E7
binds: [9] | [10] | [11] | [12] | [13] | [14]
